These are yes or no findings as the source states them, for the method shown. In cells and extracts the contact can be indirect. Some binding calls cover weakened binding; strength is not graded here. Where a sequence is shown, tags or fusion partners need not be part of it.

Experiment [1] addresses T1, Flag-tagged MSMEG_0751 (VWA domain-containing protein) (Mycobacterium smegmatis) (UniProt A0QQG8).
T1 sequence: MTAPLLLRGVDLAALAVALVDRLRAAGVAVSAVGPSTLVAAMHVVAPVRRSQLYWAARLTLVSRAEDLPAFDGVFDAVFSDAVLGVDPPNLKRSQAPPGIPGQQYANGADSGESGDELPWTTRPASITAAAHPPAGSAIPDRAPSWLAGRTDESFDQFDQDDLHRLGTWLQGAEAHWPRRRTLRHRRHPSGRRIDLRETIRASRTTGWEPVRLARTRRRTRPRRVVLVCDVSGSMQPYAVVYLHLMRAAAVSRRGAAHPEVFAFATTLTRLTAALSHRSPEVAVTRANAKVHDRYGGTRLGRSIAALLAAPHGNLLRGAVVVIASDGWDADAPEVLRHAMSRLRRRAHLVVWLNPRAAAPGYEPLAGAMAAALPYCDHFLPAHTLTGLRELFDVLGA
The experiment can be described thus: co-IP; HEK293T cells co-transfected, lysed in NP-40 buffer; lysates incubated with anti-HA or anti-FLAG antibody 3 h at 4°C, Protein A-Sepharose beads 1 h; immunoblot.

Experiment [2] deals with T2, HA-tagged MSMEG_0748 (Mycobacterium smegmatis) (UniProt A0QQG6).
T2 sequence: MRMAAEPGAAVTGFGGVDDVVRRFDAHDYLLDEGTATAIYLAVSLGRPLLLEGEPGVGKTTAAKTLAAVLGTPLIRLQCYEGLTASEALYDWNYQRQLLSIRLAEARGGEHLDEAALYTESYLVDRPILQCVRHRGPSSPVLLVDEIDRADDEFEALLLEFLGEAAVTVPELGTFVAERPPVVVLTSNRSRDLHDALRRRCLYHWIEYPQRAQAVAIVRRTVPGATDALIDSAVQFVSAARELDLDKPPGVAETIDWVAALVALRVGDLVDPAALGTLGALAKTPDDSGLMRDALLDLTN
The experiment is described as above.

B1: HA-tagged MSMEG_0748 (enzyme, UniProt A0QQG6 1-300)
chain: MRMAAEPGAAVTGFGGVDDVVRRFDAHDYLLDEGTATAIYLAVSLGRPLLLEGEPGVGKTTAAKTLAAVLGTPLIRLQCYEGLTASEALYDWNYQRQLLSIRLAEARGGEHLDEAALYTESYLVDRPILQCVRHRGPSSPVLLVDEIDRADDEFEALLLEFLGEAAVTVPELGTFVAERPPVVVLTSNRSRDLHDALRRRCLYHWIEYPQRAQAVAIVRRTVPGATDALIDSAVQFVSAARELDLDKPPGVAETIDWVAALVALRVGDLVDPAALGTLGALAKTPDDSGLMRDALLDLTN
As to B1, the binding result in experiment [1] is “binds”.

B2: Flag-tagged MSMEG_0751 (VWA domain-containing protein) (protein, UniProt A0QQG8 1-397)
chain: MTAPLLLRGVDLAALAVALVDRLRAAGVAVSAVGPSTLVAAMHVVAPVRRSQLYWAARLTLVSRAEDLPAFDGVFDAVFSDAVLGVDPPNLKRSQAPPGIPGQQYANGADSGESGDELPWTTRPASITAAAHPPAGSAIPDRAPSWLAGRTDESFDQFDQDDLHRLGTWLQGAEAHWPRRRTLRHRRHPSGRRIDLRETIRASRTTGWEPVRLARTRRRTRPRRVVLVCDVSGSMQPYAVVYLHLMRAAAVSRRGAAHPEVFAFATTLTRLTAALSHRSPEVAVTRANAKVHDRYGGTRLGRSIAALLAAPHGNLLRGAVVVIASDGWDADAPEVLRHAMSRLRRRAHLVVWLNPRAAAPGYEPLAGAMAAALPYCDHFLPAHTLTGLRELFDVLGA
With B2, the binding result in experiment [2] is recorded as “binds”.

Values taken from paper PMC12657314, “Structural modeling and biochemical characterization of MSMEG_0748, a MoxR ATPase from Mycobacterium smegmatis” (Computational and Structural Biotechnology Journal, 2025).
